PubChem BioAssay AID1224830, NIAID | 2016

- Aim: 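Regulators of TLR4 signalling towards TNF-alpha in macrophage-like cells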 (primary screen)
- Cell system: human THP-1 monocytic leukaemia cells, TNF dual-luciferase reporter clone, PMA-differentiated to macrophage-like cells
- Reagent: siRNA pool against human genes, 50 nM
- Time to read-out: LPS for 4 h, given about 3 days after siRNA transfection
- Challenge: bacterial LPS (TLR4 ligand), 10 ng/ml
- Detection: 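TNF firefly reporter luminescence divided by renilla, normalised to the plate median, then turned into a robust z-score for each replicate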
- Scale: TNF reporter robust z-score: higher = stronger TNF reporter response to LPS
- Active means: 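Each well counts as active if its z-score is over 2.8 or under -1.5; controls are left without a call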
The deposit covers about 18,000 reagents; below is an unselected part. About 2,900 of them (16%) count as active. 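Calls are made per well; low scores hint the gene aids the LPS response, high scores that it dampens it.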 Repeated entries: four replicate wells of each siRNA pool.

Which result is listed for SERAC1?
TNF reporter robust z-score: 0.59; outcome: inactive

How did the screen score SERAC1?
TNF reporter robust z-score: 0.99; outcome: inactive

How did the screen score SERAC1?
TNF reporter robust z-score: -0.56; outcome: inactive

With SERAC1, what does the deposit list?
TNF reporter robust z-score: 0.72; outcome: inactive

For B3GNT9, how do the results read?
TNF reporter robust z-score: 1.91; outcome: inactive

What did the screen give for B3GNT9?
TNF reporter robust z-score: 0.77; outcome: inactive

With B3GNT9, how do the results read?
TNF reporter robust z-score: 2.12; outcome: inactive

With B3GNT9, what does the deposit list?
TNF reporter robust z-score: 1.06; outcome: inactive

For DCAF4L2, what was measured?
TNF reporter robust z-score: 0.08; outcome: inactive

Which result is listed for DCAF4L2?
TNF reporter robust z-score: -0.51; outcome: inactive

How did the screen score DCAF4L2?
TNF reporter robust z-score: -1.51; outcome: active

With DCAF4L2, how do the results read?
TNF reporter robust z-score: -1.31; outcome: inactive

What did the screen give for VCL?
TNF reporter robust z-score: -0.22; outcome: inactive

With VCL, what does the deposit list?
TNF reporter robust z-score: -1.17; outcome: inactive

How did the screen score VCL?
TNF reporter robust z-score: -0.12; outcome: inactive

What did the screen give for VCL?
TNF reporter robust z-score: -1.11; outcome: inactive

What is on record for FMO1?
TNF reporter robust z-score: 2.38; outcome: inactive

Which result is listed for FMO1?
TNF reporter robust z-score: 6.73; outcome: active

With FMO1, what was measured?
TNF reporter robust z-score: 1.46; outcome: inactive

For FMO1, how do the results read?
TNF reporter robust z-score: 1.15; outcome: inactive

With WASHC5, how do the results read?
outcome: inactive

What did the screen give for WASHC5?
TNF reporter robust z-score: 0.28; outcome: inactive

For WASHC5, what does the deposit list?
TNF reporter robust z-score: 0.38; outcome: inactive

With WASHC5, what does the deposit list?
TNF reporter robust z-score: 0.67; outcome: inactive

For WASHC5, what does the deposit list?
TNF reporter robust z-score: 0.13; outcome: inactive

What did the screen give for ACOT12?
TNF reporter robust z-score: 0.86; outcome: inactive

For ACOT12, what does the deposit list?
TNF reporter robust z-score: 0.9; outcome: inactive

What did the screen give for ACOT12?
TNF reporter robust z-score: 1.07; outcome: inactive

With ACOT12, what does the deposit list?
TNF reporter robust z-score: 1.43; outcome: inactive

For PSKH2, how do the results read?
TNF reporter robust z-score: -1.37; outcome: inactive

With PSKH2, what was measured?
TNF reporter robust z-score: -0.31; outcome: inactive

For PSKH2, how do the results read?
TNF reporter robust z-score: -0.01; outcome: inactive

Which result is listed for PSKH2?
TNF reporter robust z-score: 0.41; outcome: inactive

For SLC2A14, what does the deposit list?
TNF reporter robust z-score: -1.05; outcome: inactive

Which result is listed for SLC2A14?
TNF reporter robust z-score: -0.85; outcome: inactive

What is on record for SLC2A14?
TNF reporter robust z-score: -0.95; outcome: inactive

What is on record for SLC2A14?
TNF reporter robust z-score: -0.54; outcome: inactive

Which result is listed for IKZF1?
TNF reporter robust z-score: -0.12; outcome: inactive

What did the screen give for IKZF1?
TNF reporter robust z-score: 0.05; outcome: inactive

With IKZF1, what does the deposit list?
TNF reporter robust z-score: -0.45; outcome: inactive

With IKZF1, what does the deposit list?
TNF reporter robust z-score: 0.55; outcome: inactive

Which result is listed for HABP4?
TNF reporter robust z-score: -0.93; outcome: inactive

What is on record for HABP4?
TNF reporter robust z-score: 0.61; outcome: inactive

Which result is listed for HABP4?
TNF reporter robust z-score: -0.16; outcome: inactive

How did the screen score HABP4?
TNF reporter robust z-score: -0.23; outcome: inactive

How did the screen score BLTP2?
TNF reporter robust z-score: 0.62; outcome: inactive

How did the screen score BLTP2?
TNF reporter robust z-score: -0.02; outcome: inactive

For BLTP2, how do the results read?
TNF reporter robust z-score: 0.7; outcome: inactive

For BLTP2, what was measured?
TNF reporter robust z-score: 1.87; outcome: inactive

4 entries from above, reformatted:
HABP4
- TNF reporter robust z-score: -0.16
- outcome: inactive

HABP4
- TNF reporter robust z-score: -0.23
- outcome: inactive

BLTP2
- TNF reporter robust z-score: 0.62
- outcome: inactive

BLTP2
- TNF reporter robust z-score: -0.02
- outcome: inactive
